Reference: PubChem BioAssay AID540276 (National Center for Advancing Translational Sciences (NCATS), 2011)
Among all 300,000 compounds or so, about 5,400 (1.8%) were called active. This list was built around the results that the source calls inconclusive (neither active nor inactive); the mix of calls is not that of the screen. Calls follow the shape of the full dose curve; tested in HEK293 cells. A potency beside an inconclusive call is a rough fit, not a confirmed value.

test: qHTS for inhibitors of binding or entry into cells for Marburg Virus; details: Marburg virus pseudotyped entry inhibition, cell reporter; activity change, negative = inhibition: at 37.8 µM (top of the series) unless noted
% is scaled to controls: 0 for no effect and ±100 for the full control effect; potency is read from the fitted curve at half-maximal effect.

| SMILES | activity change, negative = inhibition | Potency |
| --- | --- | --- |
| Oc1cccc(CCc2ccccn2)c1 | inactive: 5.63% | – |
| COc1ccc(NC(=O)c2ccc3[nH]c(C)c(C)c3c2)c(OC)c1 | – | inconclusive: 35.5 µM [inhibitor, single point] |
| Cc1ccc(S(=O)(=O)N2CCCC(C(=O)NCc3ccc4c(c3)OCO4)C2)cc1 (configuration not stated) | inactive: -20.1% | – |
| CN(C)C(CNC(=O)/C=C/c1cccc(Cl)c1)c1ccccc1 (configuration not stated) | – | inconclusive: 35.5 µM [inhibitor, single point] |
| Cc1c(CC(=O)NCCCCCC(=O)O)c(=O)oc2cc3c(cc12)CCC(C)(C)O3 | – | inconclusive: 3.98 µM [inhibitor, partial curve, poor fit] |
| COC(=O)c1[nH]c2ccccc2c1NC(=O)CN1CCN(c2cccc(OC)c2)C(C)C1 (configuration not stated) | – | inconclusive: 16.4 µM [inhibitor, partial curve, poor fit] |
| Cc1cccc(NC(=O)c2oc3ccccc3c2NC(=O)Cc2coc3ccc(C(C)C)cc23)c1 | – | inconclusive: 11.2 µM [activator, partial curve, poor fit] |
| O=[N+]([O-])c1cc(-c2nc(-c3ccccc3)no2)ccc1N1CCOCC1 | – | inconclusive: 6.31 µM [inhibitor, single point] |
| c1cncc(-c2nc(N3CCOCC3)c3ccccc3n2)c1 | – | inconclusive: 29.1 µM [inhibitor, single point] |
| O=[N+]([O-])c1nn(-c2cccc(Cl)c2)n(O)c1=NCc1cccnc1 | – | inconclusive: 29.1 µM [activator, partial curve, poor fit] |
| O=C(COC(=O)c1ccccc1SCC(=O)NC1CCS(=O)(=O)C1)NC1CCS(=O)(=O)C1 (configuration not stated) | – | inconclusive: 1.78 µM [activator, single point] |
| O=C1Nc2ccccc2N=C(c2ccccc2)c2ccccc21 | – | inconclusive: 35.5 µM [inhibitor, single point] |
| CCOC(=O)c1ccc(N2C(=O)c3n[nH]c(-c4ccco4)c3C2c2cccc(O)c2)cc1 (configuration not stated) | – | inconclusive: 35.5 µM [inhibitor, partial curve, poor fit] |
| NC(=O)c1ccsc1NC(=O)CSc1nnc(Nc2ccccc2)s1 | – | inconclusive: 29.1 µM [inhibitor, single point] |
| CC(C)n1c(NCc2c[nH]c3ccccc23)nc2ccccc21 | – | inconclusive: 11.2 µM [inhibitor, partial curve, poor fit] |
| COC(=O)c1c(-c2ccc3ccccc3c2)csc1NC(=O)Cc1ccc(OC)c(OC)c1 | – | inconclusive: 35.5 µM [inhibitor, single point] |
| Cc1nc(C(=O)NNC(=O)c2cccc(Cl)c2)c(C(F)(F)F)o1 | inactive: -0.616% [at 14.2 µM] | – |
| CCn1c(=O)c(C(=O)CN(C)Cc2cccc(OC)c2OC)c(N)n(Cc2ccccc2)c1=O | – | inconclusive: 35.5 µM [inhibitor, single point] |
| COc1ccc(-n2c(/C=C3\C(=O)Nc4ccccc43)nc3ccccc3c2=O)cc1 | – | inconclusive: 13 µM [inhibitor, single point] |
| O=C(Cn1nc2ccccc2n1)N/N=C/c1cc([N+](=O)[O-])ccc1O | – | active: 10 µM |
| Cc1cc(=O)n2c(nc3ccccc32)[nH]1 | – | inconclusive: 7.3 µM [inhibitor, single point] |
| CC(=NCCC(c1ccccc1)c1ccccc1)c1c(O)n(C)c(=O)n(C)c1=O | – | inconclusive: 0.316 µM [activator, partial curve, poor fit] |
| O=C(Oc1ccc(-c2ccccc2)cc1)N1CCOCC1 | – | inconclusive: 2.91 µM [activator, full curve] |

Sorted by count of non-hydrogen atoms (descending): some entries from above

| SMILES | activity change, negative = inhibition | Potency |
| --- | --- | --- |
| Cc1cccc(NC(=O)c2oc3ccccc3c2NC(=O)Cc2coc3ccc(C(C)C)cc23)c1 | – | inconclusive: 11.2 µM [activator, partial curve, poor fit] |
| CCn1c(=O)c(C(=O)CN(C)Cc2cccc(OC)c2OC)c(N)n(Cc2ccccc2)c1=O | – | inconclusive: 35.5 µM [inhibitor, single point] |
| COC(=O)c1c(-c2ccc3ccccc3c2)csc1NC(=O)Cc1ccc(OC)c(OC)c1 | – | inconclusive: 35.5 µM [inhibitor, single point] |
| O=C(COC(=O)c1ccccc1SCC(=O)NC1CCS(=O)(=O)C1)NC1CCS(=O)(=O)C1 (configuration not stated) | – | inconclusive: 1.78 µM [activator, single point] |
| COc1ccc(-n2c(/C=C3\C(=O)Nc4ccccc43)nc3ccccc3c2=O)cc1 | – | inconclusive: 13 µM [inhibitor, single point] |
| CC(=NCCC(c1ccccc1)c1ccccc1)c1c(O)n(C)c(=O)n(C)c1=O | – | inconclusive: 0.316 µM [activator, partial curve, poor fit] |
| O=[N+]([O-])c1cc(-c2nc(-c3ccccc3)no2)ccc1N1CCOCC1 | – | inconclusive: 6.31 µM [inhibitor, single point] |
| NC(=O)c1ccsc1NC(=O)CSc1nnc(Nc2ccccc2)s1 | – | inconclusive: 29.1 µM [inhibitor, single point] |
| O=[N+]([O-])c1nn(-c2cccc(Cl)c2)n(O)c1=NCc1cccnc1 | – | inconclusive: 29.1 µM [activator, partial curve, poor fit] |
| O=C1Nc2ccccc2N=C(c2ccccc2)c2ccccc21 | – | inconclusive: 35.5 µM [inhibitor, single point] |
| c1cncc(-c2nc(N3CCOCC3)c3ccccc3n2)c1 | – | inconclusive: 29.1 µM [inhibitor, single point] |
| O=C(Oc1ccc(-c2ccccc2)cc1)N1CCOCC1 | – | inconclusive: 2.91 µM [activator, full curve] |
| Cc1cc(=O)n2c(nc3ccccc32)[nH]1 | – | inconclusive: 7.3 µM [inhibitor, single point] |

Next entries

| SMILES | activity change, negative = inhibition | Potency |
| --- | --- | --- |
| CCn1ncc(NC(=S)NCCc2ccccc2)c1C(N)=O | – | inconclusive: 17.8 µM [inhibitor, single point] |
| Cc1ccc(C(=O)CN2C(=O)c3ccccc3S2(=O)=O)cc1 | – | inconclusive: 3.98 µM [inhibitor, full curve, poor fit] |
| CC(=O)Nc1ccc(CN2CCCC(CO)(Cc3ccccc3C)C2)cc1 (configuration not stated) | – | inconclusive: 0.447 µM [inhibitor, partial curve, poor fit] |
| CCc1nn(CC(=O)Nc2ccc(NC(C)=O)cc2)c(=O)c2cc3sccc3n12 | inactive: 5.47% [at 46.1 µM] | – |
| Cc1ccc2c(c1)N(CC(=O)N(Cc1ccccn1)Cc1ccco1)C(=O)C(C(C)C)O2 (configuration not stated) | – | inconclusive: 29.1 µM [inhibitor, single point] |
| Nc1cccc(NC(=O)CN2CCOCC2)c1 | – | inconclusive: 1.26 µM [inhibitor, single point] |
| CC1CN(C(=O)c2cc([N+](=O)[O-])cc([N+](=O)[O-])c2)CC(C)O1 (configuration not stated) | inactive: -25% [at 46.1 µM] | – |
| CCCn1c(SCC(=O)Nc2cc(Cl)ccc2Cl)n[nH]c1=O | – | inconclusive: 35.5 µM [inhibitor, partial curve, poor fit] |
| O=C(CCN1C(=O)/C(=C/c2ccc3c(c2)OCO3)SC1=S)NNC(=O)c1cccnc1 | – | inconclusive: 35.5 µM [activator, single point] |
| Cc1cc(N2C(=O)C(=O)/C(=C(/O)c3ccc(F)cc3)C2c2cccc(Br)c2)no1 (configuration not stated) | – | inactive |
| COc1cccc(-c2nn3c(-c4ccco4)nnc3s2)c1 | – | inconclusive: 0.013 µM [inhibitor, full curve, poor fit] |
| CC(=O)c1ccc(NC(=S)Nc2cccc(S(=O)(=O)Nc3c(C)n(C)n(-c4ccccc4)c3=O)c2)cc1 | inactive: 2.92% [at 46.1 µM] | – |
| O=C(NCCc1ccccn1)c1cccc(S(=O)(=O)N2CCc3ccccc32)c1 | inactive: -6.76% | – |
| CCCc1nnc(NC(=O)CCC(=O)NCc2ccccc2OC)s1 | inactive: 4.78% | – |
| CCOc1ccc2nc(SCC(=O)NNC(=O)c3ccco3)c(C)cc2c1 | – | inconclusive: 20 µM [inhibitor, single point] |
| Nc1c(Cl)cc2c(c1Br)Cc1ccccc1-2 | – | inconclusive: 35.5 µM [activator, single point] |
| N#CC(c1ccccc1)c1ccc2c(C(F)(F)F)cc(C(F)(F)F)nc2n1 (configuration not stated) | – | active: 7.08 µM |
| c1cnc(N2CCN(c3ccc4ccccc4n3)CC2)nc1 | – | inconclusive: 3.16 µM [activator, partial curve, poor fit] |
| C=CCC12OC3(OC)CC1[C@H](C)[C@@H](c1ccccc1)C2[C@@]3(C)O (some centres not stated) | inactive: 0.308% [at 14.2 µM] | – |
| CCc1ccc2nc(N(CCCN(C)C)C(=O)c3ccc(S(=O)(=O)N4CCc5ccccc5C4)cc3)sc2c1 | – | inconclusive: 35.5 µM [inhibitor, single point] |
| COc1ccc(-c2[nH]ncc2CN2CCCC2c2nonc2C)c(F)c1 (configuration not stated) | – | inconclusive: 0.891 µM [inhibitor, full curve] |
| COc1ccccc1C(O)Cc1nc2ccccc2n1C (configuration not stated) | – | inconclusive: 35.5 µM [activator, single point] |
| Cc1c(Cl)cccc1N/C(SCC(=O)N1CCCCCC1)=C(/C#N)c1nc2ccccc2s1 | – | active: 11.2 µM |

| SMILES | activity change, negative = inhibition | Potency |
| --- | --- | --- |
| Cn1c(=O)c2c(nc(NCc3ccc4c(c3)OCO4)n2Cc2ccccc2Cl)n(C)c1=O | inactive: -17.5% | – |
| C=CCn1c(SCC(=O)c2cccs2)nnc1-c1cccc(OC)c1 | inactive: 10.6% | – |
| NS(=O)(=O)c1ccc(CCNC(=O)CNCCc2ccccc2)cc1 | inactive: -1.79% [at 46.1 µM] | – |
| Cc1cccc(-c2nc(CN3CCCC(C(=O)NCCc4ccc(Cl)cc4)C3)c(C)o2)c1 (configuration not stated) | – | inconclusive: 11.2 µM [inhibitor, partial curve, poor fit] |
| COc1ccc(OCCNc2cc(N3CCOCC3)ccc2[N+](=O)[O-])cc1 | – | inconclusive: 35.5 µM [inhibitor, single point] |
| CCCCn1c(=O)[nH]c(=O)c2c(C(=O)OCC)cc(-c3cccs3)nc21 | – | inconclusive: 5.62 µM [inhibitor, full curve, poor fit] |
| O=C(Nc1sc2c(c1C(=O)NCC1CCCO1)CCCC2)c1cc(=O)c2ccccc2o1 (configuration not stated) | – | inconclusive: 6.31 µM [activator, single point] |
| O=C(Nc1ccc(Cl)c(S(=O)(=O)N2CCCCC2)c1)c1ccncc1 | – | inconclusive: 35.5 µM [inhibitor, single point] |
| C=C(C)CSc1nc2ccccc2[nH]1 | inactive: 13.8% | – |
| CCOc1ccc2c(c1)/C(=N/N1C(=O)c3ccccc3C1=O)C(=O)N2 | inactive: -10.8% [at 46.1 µM] | – |
| COc1cc(C(=O)Nc2ccc(-c3nc4cc(C)ccc4o3)c(O)c2)cc(OC)c1OC | – | inconclusive: 29.1 µM [inhibitor, single point] |
| CCn1cc(C(=O)NCc2ccc3c(c2)OCO3)c(=O)c2ccc(C)nc21 | inactive: 1.58% | – |
| COc1ccc2cc3[n+](cc2c1OC)CCc1cc2c(cc1-3)OCO2 | – | inconclusive: 14.6 µM [inhibitor, partial curve, poor fit] |
| CC(C)NC(=O)NNC(=O)c1nn(-c2ccc(F)cc2)ccc1=O | – | inconclusive: 1.41 µM [inhibitor, single point] |
| CCOC(=O)C1C(=O)C=C(Nc2ccccc2F)CC1c1ccccc1 (configuration not stated) | – | inconclusive: 1.26 µM [activator, single point] |
| COc1ccc(C(C(=O)NC2CCCC2)N(C(=O)c2ccco2)c2ccc3c(c2)OCO3)cc1OC (configuration not stated) | – | inactive |
| COc1cc(N2CCCC2)c(OC)cc1/C=C(/C#N)c1ccc(F)cc1 | – | inconclusive: 35.5 µM [inhibitor, single point] |
| CCOC(=O)C(Cc1c[nH]c2ccccc12)NC(=O)c1ccccc1Br (configuration not stated) | inactive: 9.63% | – |
| CC(=O)c1c(C)[nH]c(C(=O)CN2CCN(S(=O)(=O)c3ccccc3F)CC2)c1C | – | inconclusive: 35.5 µM [inhibitor, single point] |
| N#CCSc1nc(-c2ccccc2)cs1 | inactive: 2.17% | – |
| O=C(c1cc(F)c(F)cc1Cl)N1CCCc2ccccc21 | – | inconclusive: 39.8 µM [inhibitor, partial curve, poor fit] |
